US12648571B2 (University of Puerto Rico, priority 2020, dated 2026)
No end group written: not given here.

Test: peptide made by a vendor
Conditions: whole synthesis

| Substance | purity (crude or final not stated) |
| --- | --- |
| ILGPVLGLVSDTLDDVLGIL-OH | 95% purity |
| ILGPVLGLVSDTLDDVLGILC-OH | 95% purity |
